Measured values from PubChem BioAssay AID1259415 (National Center for Advancing Translational Sciences (NCATS), 2018).
Screen size: about 410,000 compounds; about 18,000 (4.4%) were called active. Inconclusive means that the source gave no clear call. Such entries were picked first, then a sample of the others. Cut-off read from the data, not from the text of the source: active = activity change below about -60%; inconclusive = no clear call, values can overlap the other calls; inactive = above about -39%.

Assay: qHTS Assay for inhibitors of the human cytomegalovirus (HCMV)
Conditions: HFF cells, HCMV-luciferase reporter, 72 h; at 57.5 µM; hits give low values
In short: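 Luciferase read-out from HCMV-luciferase-infected HFFs (MOI 1 PFU/cell) 72 h post infection at 37C; compounds added after 16 h cell attachment; activity normalized between buffer-only basal and Salinomycin (10uM) inhibitor controls.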
% is set by controls: 0 for no effect and ±100 for the full control effect.

| SMILES | activity change, negative = inhibition |
| --- | --- |
| O=c1c(-c2ccc(Br)cc2)[n+]([O-])c2ccccc2n1OCc1ccccc1 | inconclusive: -55.3% |
| COc1cc(O)c(NC(C)=O)c2nonc12 | inactive: 2.15% |
| Nc1ncnc2c1ncn2[C@@H]1O[C@H](CNS(=O)(=O)c2cc(S(=O)(=O)c3ccccc3)cs2)[C@@H](O)[C@H]1O | inactive: 22.6% |
| Cn1c(CN2CCOCC2)nc2cc(NC(=O)COc3ccccc3)ccc21 | inconclusive: -57.4% |
| COc1cc2c(cc1OC)C(C(=O)O)C(c1ccc(C)o1)N(C)C2=O (stereo not drawn) | inconclusive: -43.6% |
| CCN(C(=O)COC(=O)CSc1ccc(F)cc1)c1c(N)n(Cc2ccccc2)c(=O)[nH]c1=O | inactive: 0% |
| Cc1ccc(NC(=S)N(CCN2CCCCC2)Cc2ccco2)cc1 | inconclusive: -59.3% |
| O=C(CCNS(=O)(=O)c1ccc(OC(F)(F)F)cc1)N1CCN(C/C=C/c2ccccc2)CC1 | inconclusive: -43.1% |
| Cc1ccccc1NC(=S)NCC(c1cccnc1)N(C)C (stereo not drawn) | inconclusive: -58.9% |
| COc1ccc(Nc2nc(-c3ccncc3)nc3ccccc23)cc1 | inactive: -8.89% |
| Cc1ccc(C)c(NC(=O)Cn2c(=O)n(-c3ccccc3C)c(=O)c3c2c2cc(C)ccc2n3C)c1 | inactive: 5.5% |
| Cc1ccc(C(C)C)c(OCC(=O)NCC2(N3CCOCC3)CCCCC2)c1 | inconclusive: -46.5% |
| O=C1NC(=Nc2ccccc2)SC1Cc1ccccc1 (stereo not drawn) | inconclusive: -46.3% |
| O=C(CN1C(=O)S/C(=C\C=C\c2ccccc2)C1=O)Nc1ccccc1C(=O)O | inconclusive: -56.6% |
| CC1(C(=O)Nc2ccccc2)Cc2c(-c3ccc4c(c3)OCO4)ccnc2O1 (stereo not drawn) | inactive: -23.3% |
| Cc1nc2ccccc2c(=O)n1/N=C/c1ccc(O)cc1 | inactive: -29.7% |
| CCc1cc2c(cc3c(=O)n(CC(=O)NC4CCCCC4)nc(CC)n32)s1 | inconclusive: -40.4% |
| C=C1CCC[C@]2(C)C[C@H]3OC(=O)C(CNC(C)(CO)CO)[C@H]3CC12 (stereo partly drawn) | active: -85.6% |
| Cn1c(SCC(=O)NC2CCCC2)nnc1-c1ccncc1 | inactive: 15.7% |
| CCc1ccc(N(CC(=O)Nc2ccc(NC(C)=O)cc2)S(=O)(=O)c2ccccc2)cc1 | active: -61.1% |
| CCOc1ccc(S(=O)(=O)N2CCOCC2)cc1NC(=O)Cc1c(F)cccc1Cl | inconclusive: -43% |
| COCCNc1cc(C)nc2cc(-c3ccc(C)cc3)nn12 | inactive: -10.2% |
| Cc1ccc2oc(=O)c3cnn(CC(=O)N(CCC(C)C)Cc4ccco4)c3c2c1 | inconclusive: -40.3% |

Copied from the listing, two compounds:

| SMILES | activity change, negative = inhibition |
| --- | --- |
| Nc1ncnc2c1ncn2[C@@H]1O[C@H](CNS(=O)(=O)c2cc(S(=O)(=O)c3ccccc3)cs2)[C@@H](O)[C@H]1O | inactive: 22.6% |
| Cn1c(CN2CCOCC2)nc2cc(NC(=O)COc3ccccc3)ccc21 | inconclusive: -57.4% |
